# Measured values: PubChem BioAssay AID1671190 (National Center for Advancing Translational Sciences (NCATS), 2021)
# Protein sequences, listed by entry. Tags and fused reporters are not part of them. Lines headed by an entry give the natural chain unless they say otherwise; changes in a name come on top.
# UniProt P18054: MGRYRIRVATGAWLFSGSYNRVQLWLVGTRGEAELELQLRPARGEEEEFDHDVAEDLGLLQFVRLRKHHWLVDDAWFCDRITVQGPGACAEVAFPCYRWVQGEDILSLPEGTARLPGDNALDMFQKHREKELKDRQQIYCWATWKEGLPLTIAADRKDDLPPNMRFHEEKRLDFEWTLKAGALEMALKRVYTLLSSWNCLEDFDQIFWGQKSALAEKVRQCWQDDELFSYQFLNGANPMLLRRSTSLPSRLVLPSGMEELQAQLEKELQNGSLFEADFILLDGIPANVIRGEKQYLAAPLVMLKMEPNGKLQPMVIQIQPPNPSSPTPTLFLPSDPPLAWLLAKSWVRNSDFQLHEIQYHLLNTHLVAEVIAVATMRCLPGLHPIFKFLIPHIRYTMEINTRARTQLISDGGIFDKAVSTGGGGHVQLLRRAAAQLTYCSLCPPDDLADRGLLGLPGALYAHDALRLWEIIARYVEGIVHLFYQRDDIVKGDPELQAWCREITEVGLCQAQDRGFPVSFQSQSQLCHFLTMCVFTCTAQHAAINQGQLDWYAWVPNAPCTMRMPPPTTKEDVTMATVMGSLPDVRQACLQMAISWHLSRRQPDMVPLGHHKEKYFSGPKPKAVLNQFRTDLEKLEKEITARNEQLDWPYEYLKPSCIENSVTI
# Out of some 580,000 compounds screened, about 6,100 (1.1%) were called active. This list was built around the results that the source calls inconclusive (neither active nor inactive); the mix of calls is not that of the screen. Calls follow the shape of the dose curve; as a rule, active = well fitted inhibition curve with a large enough effect; inconclusive = small, poorly fitted or top-dose-only effect, or another doubt; inactive = no such curve, though single readings can be large or run the other way. Where the call is inconclusive, the potency comes from a doubtful curve fit.
# Target: Polyunsaturated fatty acid lipoxygenase ALOX12 (Homo sapiens) (UniProt P18054)
# Assay: Primary qHTS assay for inhibitors of human arachidonate 12S-lipoxygenase (ALOX12): Round 2
# Settings: purified 12hLO, xylenol orange hydroperoxide absorbance; series mostly up to 108 µM
# How it was run: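 Purified human 12hLO at 150 nM in 25 mM Hepes, 0.01% Triton X-100, pH 7.0, preincubated 15 min at room temperature with compound. Reaction started with 40 uM arachidonic acid, 30 min at room temperature. Hydroperoxide measured by Fe-xylenol orange, 573/405 nm absorbance ratio.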
# Potency is read from the fitted curve at half-maximal effect.
row,Compound,Potency
1,Cc1oc(-c2cccc(Cl)c2)nc1CN1CCC(C(=O)NCc2cccnc2)CC1,inactive
2,O=C1NC[C@H](CCCCN2C[C@H](Cc3ccccc3)N(CC3CCCCC3)C(=O)C2=O)N(CCc2ccc(O)cc2)C1=O,"inconclusive: 100 µM [inhibitor, single point]"
3,Cc1ccc(C(=O)N2C[C@@H]3CCCN4CCC[C@@H]([C@H]34)[C@H]2CCCC(=O)Nc2ccccc2)cc1,inactive
4,O=C(NC(=S)NC(CO)Cc1ccccc1)c1ccc(F)cc1 (centres undefined),active: 39.8 µM
5,CCC(C)(C)NC(=O)C(c1ccc(F)cc1)N(Cc1ccco1)C(=O)c1cnccn1 (centres undefined),"inconclusive: 35.5 µM [inhibitor, partial curve, poor fit]"
6,Cc1cc(OCCN2CC(C)OC(C)C2)ccc1[N+](=O)[O-] (centres undefined),"inconclusive: 0.794 µM [inhibitor, full curve, poor fit]"
7,O=C(CC1N=C2c3ccccc3N=C(SCc3ccccc3Cl)N2C1=O)NCc1cccs1 (centres undefined),"inconclusive: 158 µM [inhibitor, partial curve, poor fit]"
8,CC(Sc1ncnc2ccccc12)C(=O)NC1CCCC1 (centres undefined),inactive
9,NC(=O)c1cccc(-c2ncc3c(n2)OCCN(Cc2ccccc2)C3=O)c1,"inconclusive: 44.7 µM [inhibitor, full curve, poor fit]"
10,COc1ccc([C@H]2C[C@@H](n3cc(COC(=O)c4ccccc4)nn3)[C@H](O)CN2CC2CCCCC2)cc1,"inconclusive: 126 µM [inhibitor, single point]"
11,CCOc1ccc(NC(=O)Cc2ccc(-n3c(C)nc4cccnc43)cc2)cc1,inactive
12,CCCCNc1c(-c2ccc(SC(C)CC)cc2)nc2ccccn12 (centres undefined),"inconclusive: 44.7 µM [inhibitor, partial curve, poor fit]"
13,COc1ccc(OC)c(C(c2nnnn2CC2CCCO2)N2CCN(C3CCCC3)CC2)c1 (centres undefined),"inconclusive: 39.8 µM [inhibitor, partial curve, poor fit]"
14,O=C(NC(=S)Nn1cnnc1)c1ccccc1,active: 35.5 µM
15,NC(Cc1ccc(Cl)cc1)c1csc(NC(=O)Nc2ccccc2-c2ccccc2)n1 (centres undefined),"inconclusive: 44.7 µM [inhibitor, partial curve, poor fit]"
16,CC(COc1ccccc1C#N)CN1CCC(C(O)(c2ccccc2)c2ccccc2)CC1 (centres undefined),"inconclusive: 31.6 µM [inhibitor, partial curve, poor fit]"
17,CCCCCn1c(=O)[nH]c2cc(C(=O)NCCCN3CCCCC3C)ccc2c1=O (centres undefined),"inconclusive: 100 µM [inhibitor, partial curve, poor fit]"
18,O=C(O)C1C(c2ccccc2)C(C(=O)Oc2cccc3ccccc23)C1c1ccccc1 (centres undefined),"inconclusive: 50.1 µM [inhibitor, partial curve, poor fit]"
19,COc1ccc(C(=O)NNc2ncnc3c2cnn3-c2ccccc2)cc1,"inconclusive: 50.1 µM [inhibitor, partial curve, poor fit]"
20,CC/C(=N/NC(=O)C1CC1(c1ccc(C)cc1)c1ccc(C)cc1)c1ccccc1 (centres undefined),inactive

row,Compound,Potency
1,CCOc1ccc(C(C)=O)cc1COC(=O)C(C)NC(=O)c1ccccc1 (centres undefined),"inconclusive: 112 µM [inhibitor, single point]"
2,Cc1ccc(NS(=O)(=O)c2cc(Br)cnc2N)cc1C,"inconclusive: 44.7 µM [inhibitor, partial curve, poor fit]"
3,Cc1cc(-c2n[nH]c(=S)o2)c(C)n1-c1ccccc1,"inconclusive: 141 µM [inhibitor, partial curve, poor fit]"
4,O=C(Nc1ccn(Cc2ccccc2F)n1)c1ccc(COc2ccc(Br)cc2)cc1,inactive
5,CN(c1ccccc1)c1nc2c(c(=O)n(C)c(=O)n2C)n1CC(=O)O,"inconclusive: 89.1 µM [inhibitor, single point]"
6,COc1ccc2[nH]c(=O)c(CCC(=O)N(C)CCc3ccccc3)cc2c1,"inconclusive: 44.7 µM [inhibitor, partial curve]"
7,CCCc1n(CC(O)COC2CCCCC2)c2ccccc2[n+]1C (centres undefined),"inconclusive: 44.7 µM [inhibitor, partial curve, poor fit]"
8,COC(=O)c1sc(S(=O)(=O)Nc2ccc(F)c(F)c2)c(C(=O)OC)c1C,inactive
9,Cc1ccc(NC(=O)CN2C(=O)c3ccccc3Sc3ccc(C(=O)N4CCCC4)cc32)cc1,"inconclusive: 63.1 µM [inhibitor, partial curve, poor fit]"
10,Cn1c(=O)c2c(-c3cccc(Br)c3)[nH]cc2n(C)c1=O,"inconclusive: 44.7 µM [inhibitor, partial curve, poor fit]"
11,O=[N+]([O-])c1cccc(/C=N/n2c(COc3ccccc3)n[nH]c2=S)c1,"inconclusive: 31.6 µM [inhibitor, partial curve, poor fit]"
12,CC1=CC(=O)C(C(C)C)=CC1=NC(=O)c1ccc(C)cc1,"inconclusive: 44.7 µM [inhibitor, partial curve, poor fit]"
13,CCOc1ccc(NC(=O)Cn2nc3c(cc2=O)CN(C(C)=O)CC3)cc1,inactive
14,Cc1sc2ncnc(N3CCC(C(=O)Nc4ccc(Br)cc4Br)CC3)c2c1C,inactive
15,COC(=O)C1=C(C)N(C)C(=NCc2ccc3c(c2)OCO3)NC1c1ccc(Cl)cc1 (centres undefined),"inconclusive: 50.1 µM [inhibitor, partial curve, poor fit]"
16,COc1ccc(SC[C@H](C)CN2CC[C@H](NC(=O)OCc3ccccc3)CCC2=O)cc1,"inconclusive: 28.2 µM [inhibitor, partial curve]"
17,NCCC1CN(C(=O)OCc2ccccc2)c2ccccc21 (centres undefined),"inconclusive: 56.2 µM [inhibitor, partial curve, poor fit]"
18,CC(C)c1ccc(N2C(=O)CC(Sc3ncccn3)C2=O)cc1 (centres undefined),"inconclusive: 50.1 µM [inhibitor, single point]"
19,COc1ccc(NC(=O)C(NC(=O)/C=C\c2ccc3c(c2)OCO3)c2ccc(OC)cc2)cc1 (centres undefined),"inconclusive: 3.98 µM [inhibitor, full curve, poor fit]"

# 3 entries already listed, arranged by molecular weight, low to high:
row,Compound,Potency
12,CC1=CC(=O)C(C(C)C)=CC1=NC(=O)c1ccc(C)cc1,"inconclusive: 44.7 µM [inhibitor, partial curve, poor fit]"
18,CC(C)c1ccc(N2C(=O)CC(Sc3ncccn3)C2=O)cc1 (centres undefined),"inconclusive: 50.1 µM [inhibitor, single point]"
13,CCOc1ccc(NC(=O)Cn2nc3c(cc2=O)CN(C(C)=O)CC3)cc1,inactive
